Among all 52,000 sequences or so, about 210 (0.4%) were called active.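 The calls were made as follows: active = gene whose silencing raises cell survival under the drug, median off-target-corrected z-score across its silencing RNAs 2 or more; inactive = the rest.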 Some of the results follow.
Test: Resistance to Poly (ADP-Ribose) Polymerase inhibitor: Gene Identification via Genome-wide siRNA Screen
Conditions: mouse BRCA2 R2336H ES cells, olaparib, CellTiter-Glo viability; hits give high values
In short: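 Mouse BRCA2 R2336H ES cells were reverse-transfected with siRNA (20 nM final), treated at 48 h with 500 nM olaparib, and read by CellTiter-Glo after 72 h. Scores: MAD-based z per siRNA, median per gene, seed off-target correction.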

Sequence	z-score
GCUAACUCUUCGGCAGGAATT against Scospondin	inactive: -0.989
GGAUUUGGAUUGACCCUUGTT against Grwd1	inactive: -1.11
CCAACCUCCCAUUCUGAAUTT against 4732467L16Rik	inactive: 1.47
GGACUGCUUUUGCUAUGAATT against Cys1	inactive: -0.657
GAUCUUAGCUGUGUGUGUGTT against Cxcl4	inactive: 0.39
GGUGAUCCAAGACUUCCAGTT against Actl6b	inactive: -0.0937
GGAUGUCUUGCUUCACCGUTT against Ripk5	inactive: -1.33
CCGGCUAAAUCACCGUGCUTT against Skd3	inactive: 0.364
UUGUCAUUCACUUGAUGAATT against Hist3h2ba	inactive: 0.612
GGCAUCAUCGCCAUCUUCATT against ORF31	inactive: -0.384
GGAACUCACUUACUUAUGUTT against Prrx2	inactive: 0.0726
GCUCCACCGAGAAAUUACUTT against 2610529C04Rik	inactive: -0.711
GGACCACCAGACAUUCUUUTT against Lrp12	inactive: 0.65
GGAAGAACAACGAAGAAACTT against 2810484M10Rik	inactive: -0.379
GCCUGUGCUUAAUUUAAGGTT against Yme1l1	inactive: 0.219
GGAUCAAUGCAUGGAAUUCTT against Ugdh	inactive: 2.32
GGUCAGAUAAAACUCUUCATT against Bmi1	inactive: 1.33
GGAUUUUGCUCAGACGACATT against Taf1a	inactive: -1.48
GGUAACCACAGUAGUGGCATT against Gsk3b	inactive: -0.448
GGAUGACUUCUUCAAGCCATT against BC016495	inactive: 2.41
GGAAAAAUCAUGGAGAAAATT against Dhodh	inactive: 0.455
GCUCUUGACUCACUCAGCATT against 9430083I22	inactive: -1.19
ACCGAAAAUCUUCAGUACUTT against LOC544988	inactive: 0.484
GGCGAAAAUUACUCGAAAGTT against Penk1	inactive: 0.171
GGUCUUAAGGAGAAAUGAATT against Cbln2	inactive: -0.576
GGAUCACAGUGGUUCAGAATT against Snai2	inactive: -2.89
GGUCCUCCCAUAAUCUAGUTT against BC046404	inactive: 1.46
GCUCCUCGAAUCCCUGUAGTT against Per3	inactive: 1.64
CCAGUUCAAGAGACUCGUATT against Dio1	inactive: -0.484

Taken from the listing (2 entries):
Sequence	z-score
ACCGAAAAUCUUCAGUACUTT against LOC544988	inactive: 0.484
GGCGAAAAUUACUCGAAAGTT against Penk1	inactive: 0.171

From PubChem BioAssay AID1347423 (Functional Genomics Laboratory (NCATS/FGL), 2020)
